Assay results as given in publication PMC3781321.
No constants are given. Whether binding was seen depends on the method and setting. In cells and extracts the contact can be indirect. These calls come from enrichment with a bait or labelling near it, and not all partners need be listed.

Sequences of proteins named here, by UniProt entry; tags and fusion partners are left off.
UniProt Q7TMB8: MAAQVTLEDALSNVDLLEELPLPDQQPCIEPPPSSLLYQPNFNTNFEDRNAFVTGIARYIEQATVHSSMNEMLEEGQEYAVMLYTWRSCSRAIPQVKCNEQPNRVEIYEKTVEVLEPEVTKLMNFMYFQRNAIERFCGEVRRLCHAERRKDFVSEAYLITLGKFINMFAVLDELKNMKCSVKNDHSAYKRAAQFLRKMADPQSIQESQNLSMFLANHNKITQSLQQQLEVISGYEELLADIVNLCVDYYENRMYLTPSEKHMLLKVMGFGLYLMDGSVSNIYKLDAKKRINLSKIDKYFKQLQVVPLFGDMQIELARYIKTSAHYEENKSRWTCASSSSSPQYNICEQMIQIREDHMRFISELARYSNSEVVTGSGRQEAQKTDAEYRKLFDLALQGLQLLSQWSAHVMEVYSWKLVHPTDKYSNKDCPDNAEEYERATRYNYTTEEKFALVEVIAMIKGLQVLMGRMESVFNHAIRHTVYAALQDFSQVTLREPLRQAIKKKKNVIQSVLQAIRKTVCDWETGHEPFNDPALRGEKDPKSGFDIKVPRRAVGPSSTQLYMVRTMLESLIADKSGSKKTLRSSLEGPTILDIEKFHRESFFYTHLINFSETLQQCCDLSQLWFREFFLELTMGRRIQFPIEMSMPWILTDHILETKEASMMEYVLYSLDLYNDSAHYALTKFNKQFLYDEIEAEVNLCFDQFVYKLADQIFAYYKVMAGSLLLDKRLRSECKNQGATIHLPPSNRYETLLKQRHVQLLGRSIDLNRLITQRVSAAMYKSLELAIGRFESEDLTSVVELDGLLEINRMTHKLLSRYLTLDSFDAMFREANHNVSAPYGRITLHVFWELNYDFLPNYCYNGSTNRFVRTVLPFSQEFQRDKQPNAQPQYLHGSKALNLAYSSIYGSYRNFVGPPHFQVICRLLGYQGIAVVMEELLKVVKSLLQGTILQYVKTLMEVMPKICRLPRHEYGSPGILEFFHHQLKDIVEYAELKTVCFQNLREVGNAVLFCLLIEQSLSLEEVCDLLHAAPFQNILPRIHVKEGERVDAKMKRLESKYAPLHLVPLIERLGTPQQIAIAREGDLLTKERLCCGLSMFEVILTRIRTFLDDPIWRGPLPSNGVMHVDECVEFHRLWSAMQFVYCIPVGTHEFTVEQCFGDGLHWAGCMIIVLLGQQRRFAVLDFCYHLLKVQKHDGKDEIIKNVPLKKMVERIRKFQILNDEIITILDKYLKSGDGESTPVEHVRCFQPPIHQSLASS
UniProt P29341: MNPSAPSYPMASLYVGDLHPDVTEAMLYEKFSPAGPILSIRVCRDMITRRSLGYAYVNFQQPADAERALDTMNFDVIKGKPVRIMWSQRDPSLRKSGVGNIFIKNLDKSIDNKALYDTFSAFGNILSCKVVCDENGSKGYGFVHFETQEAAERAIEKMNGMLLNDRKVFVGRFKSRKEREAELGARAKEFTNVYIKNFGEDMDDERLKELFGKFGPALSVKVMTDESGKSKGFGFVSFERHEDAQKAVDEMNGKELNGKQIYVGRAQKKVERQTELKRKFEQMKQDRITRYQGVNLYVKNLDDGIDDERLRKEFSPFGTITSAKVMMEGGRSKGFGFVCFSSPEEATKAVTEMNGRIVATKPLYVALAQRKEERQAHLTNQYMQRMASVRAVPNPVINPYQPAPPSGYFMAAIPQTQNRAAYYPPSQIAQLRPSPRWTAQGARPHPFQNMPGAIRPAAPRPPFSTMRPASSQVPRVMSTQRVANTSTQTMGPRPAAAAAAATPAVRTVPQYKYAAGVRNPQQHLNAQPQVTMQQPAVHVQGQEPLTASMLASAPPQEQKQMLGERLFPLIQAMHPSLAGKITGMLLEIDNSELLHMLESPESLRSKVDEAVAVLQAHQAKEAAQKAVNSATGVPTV

B1: Caprin1, mouse, endogenous (protein, UniProt Q60865 1-707)
chain: MPSATSHSGSGSKSSGPPPPSGSSGSEAAAGAAAPASQHPATGTGAVQTEAMKQILGVIDKKLRNLEKKKGKLDDYQERMNKGERLNQDQLDAVSKYQEVTNNLEFAKELQRSFMALSQDIQKTIKKTARREQLMREEAEQKRLKTVLELQYVLDKLGDDDVRTDLKQGLSGVPILSEEELSLLDEFYKLVDPERDMSLRLNEQYEHASIHLWDLLEGKEKPVCGTTYKALKEIVERVFQSNYFDSTHNHQNGLCEEEEAASAPTVEDQVAEAEPEPAEEYTEQSEVESTEYVNRQFMAETQFSSGEKEQVDEWTVETVEVVNSLQQQPQAASPSVPEPHSLTPVAQSDPLVRRQRVQDLMAQMQGPYNFIQDSMLDFENQTLDPAIVSAQPMNPTQNMDMPQLVCPQVHSESRLAQSNQVPVQPEATQVPLVSSTSEGYTASQPLYQPSHATEQRPQKEPMDQIQATISLNTDQTTASSSLPAASQPQVFQAGTSKPLHSSGINVNAAPFQSMQTVFNMNAPVPPANEPETLKQQSQYQATYNQSFSSQPHQVEQTELQQDQLQTVVGTYHGSQDQPHQVPGNHQQPPQQNTGFPRSSQPYYNSRGVSRGGSRGARGLMNGYRGPANGFRGGYDGYRPSFSNTPNSGYSQSQFTAPRDYSGYQRDGYQQNFKRGSGQSGPRGAPRGRGGPPRPNRGMPQMNTQQVN

Target: cytoplasmic FMRP-interacting protein 1 (CYFIP1), mouse, endogenous (mouse (endogenous in cortex)) (UniProt Q7TMB8)
Experiment: affinity purification with mass spectrometry; IP with anti-CYFIP1 antibody from mouse whole cortical lysates, tandem MS; rabbit IgGs as negative control; n = 3

| Molecule | binding |
| --- | --- |
| PABP1, mouse, endogenous (from UniProt P29341 1-636) | binds |
| B1 | binds |
